From patent US20260056209A1
Results are given in words; binding and its absence hold for the method and conditions named. Some binding calls cover weakened binding; strength is not graded here. Tags and fused reporters may be left off the sequences shown. One block for each binder: values may come before it.

Amino acid sequences for entries named in this document (tags omitted). A change or cut given only in a name is not applied to a line headed by its entry.
UniProt P51685: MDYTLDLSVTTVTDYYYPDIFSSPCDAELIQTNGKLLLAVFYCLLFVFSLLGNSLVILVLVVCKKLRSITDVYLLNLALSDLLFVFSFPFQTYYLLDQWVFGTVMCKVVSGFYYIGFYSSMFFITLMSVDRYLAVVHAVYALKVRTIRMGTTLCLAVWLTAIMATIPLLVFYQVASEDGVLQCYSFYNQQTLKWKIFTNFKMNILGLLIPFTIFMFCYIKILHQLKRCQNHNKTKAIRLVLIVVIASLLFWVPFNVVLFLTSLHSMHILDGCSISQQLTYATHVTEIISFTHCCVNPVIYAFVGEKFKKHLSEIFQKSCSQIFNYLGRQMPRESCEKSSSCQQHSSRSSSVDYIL

Key:
Human CCR8 [1] = biological target: T1, Human CCR8 (UniProt Identifier P51685) (human) (UniProt P51685); assay: IHC on human H&N SCC FFPE tissues at 0.25 µg/mL
Human CCR8 [2] = biological target: T1, Human CCR8; assay: IHC on cell pellet array (NSO huCCR8, HEK293 untagged CCR8, Hut78 and wildtype negative controls)
Human CCR8 [3] = biological target: T1, Human CCR8; assay: IHC on cell pellets and human FFPE tissues
Human CCR8 [4] = biological target: T1, Human CCR8; assay: IHC on CCR8-expressing HEK293T cell pellets with or without 7-B16 pre-treatment

binding (Human CCR8 [1]): binds
binding (Human CCR8 [2]): binds
B1: BD 566379 (Clone 433H) (antibody, V domains shown)
VH: EVQLVETGGGLVQPKGSLRLSCAASGFPFNTFAMNWVRQAPGKGLEWLARIRSKSNNYATYYADSVKDRFTISRDDSRRMLYLLMNNVKFEDTAIYYCVRGKENNYGYAMDYWGQGTSVTVSS
VL: DIVMTQAAPSVPVTPGESVSISCRSSQSLLHSNGNTYLYWFLQRPGQSPQLLIYRMSNLASGVPDRFSGSGSGTAFTLRISRVEAEDVGVYYCMQHLEYPFTFGIGTKLELKR

binding (Human CCR8 [3]): binds
binding (Human CCR8 [4]): binds
B2: BD 624084 (unconjugated 433H antibody) (antibody, human IgG1, kappa, V domains shown)
VH: B1 VH
VL: B1 VL
